# Source: the supplement of paper PMC8728848
# This is one part of the list.
# B1: Loc1 (Escherichia coli) (protein)
# chain: APCALTNVGEQRGTYILKPLSMKGNLTAEKIENTGNIIECTDLQETTNAIKVHFLTQNALKFKVGSRHYIINFPFEYDGKKIELPGKSSYNLEEMLSAINFTIPYSIASVSDSSNTADIFPGTPFPLLFEIEVSSCTGNNTNCNSVRFNYNLNTILQVNLMTHHHHHH
# What was measured:
# [1] = molecular target: Neu5Gc(a2-8)Neu5Gc(a2-6)Gal(b1-4)GlcNAc; assay: glycan array binding signal (z-score within array); higher = stronger binding; conditions: glycan notation: IUPAC condensed, linker removed
# In short: (§1)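 The Consortium for Functional Glycomics database supplied 3228 glycan arrays, of which those lacking an available protein sequence were dropped. The binding signal, a within-array Z-score, was averaged across arrays of the same protein sequence and across linkers. Negative scores can be read as non-binding.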
# [2] = molecular target: Neu5Gc(b2-6)Gal(b1-4)GlcNAc; assay: as above; conditions: glycan notation: IUPAC condensed, linker removed
# In short: as §1
binder,measurement,setting,value
B1,glycan array binding signal (z-score),[1],0.745
same,glycan array binding signal (z-score),[2],-0.166
